# Data from PubChem BioAssay AID493014 (National Center for Advancing Translational Sciences (NCATS), 2011).
# Some of the results follow. The main result of the screen is listed elsewhere. These columns were measured beside it and carry no call. Compounds called inactive in the main read-out are mostly missing here. Words in brackets tell the shape of the fitted curve; partial curves, single points and poor fits give uncertain potencies.
# Test: qHTS Assay to Find Inhibitors of Chronic Active B-Cell Receptor Signaling
# Details: ABC-DLBCL IkBa-CBG/CBR reporter, luminescence ratio (green luciferase fused to IkBa over red control in TMD8 lymphoma cells), 4 h
# How it was run: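 Compounds up to 46 uM were incubated four hours with TMD8 cells whose green CBG68 luciferase is fused to IkappaBalpha; red CBR luminescence normalised the signal, and concentration-effect curves were fitted to fusion, red and ratio data.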
# [1] = measured here: CBR red luminescence, cell number
# [2] = measured here: IkBa-CBG green luminescence
smiles,measurement,setting,value
CCOC(=O)N1CCc2c(sc(NC(=O)CN3CCOCC3)c2C#N)C1,AC50,[1],"35.5 µM [falling, single point]"
CCCCCc1cc(=O)c2ccccc2o1,AC50,[1],"6.51 µM [rising, full curve, poor fit]"
N/C(=N\OC(=O)CC1CCCCC1)c1ccc([N+](=O)[O-])cc1,AC50,[1],"29.1 µM [rising, single point]"
CCc1cccc(NC2c3ccccc3C(=O)N2c2ccc(C)cn2)c1 (stereo not drawn),AC50,[1],"1.64 µM [falling, partial curve, poor fit]"
COc1cccc(NC(=O)N2CCC(NC(=O)C(Cc3ccccc3F)NC(C)=O)CC2)c1 (stereo not drawn),AC50,[1],"35.5 µM [falling, partial curve, poor fit]"
Cc1cc(C(=O)Nc2ccc(Cl)cc2)c2ccccc2n1,AC50,[1],"22.4 µM [rising, single point]"
O=C(Nc1nc2c(s1)CN(Cc1ccccc1)CC2)C1CCC1,AC50,[1],"35.5 µM [rising, partial curve, poor fit]"
C=CCSc1nnc(-c2cc3c(s2)-c2ccccc2CC3)o1,AC50,[1],"0.82 µM [rising, full curve, poor fit]"
COc1ccc(C(=O)NCCCNC(=O)c2cnccn2)cc1Br,AC50,[1],"0.0891 µM [rising, full curve, poor fit]"
CC(C)CCC(CCNCc1ccccn1)c1ccc(Cl)cc1 (stereo not drawn),AC50,[1],"25.1 µM [falling, single point]"
COc1ccc2cc(-c3ccon3)ccc2c1,AC50,[1],"35.5 µM [rising, single point]"
COc1cc(-c2nnc(SCc3c(F)cccc3Cl)o2)cc(OC)c1OC,AC50,[1],"32.6 µM [falling, single point]"
NC(=O)c1cc(-c2ccccc2)sc1NC(=O)CN1CCCCC1,AC50,[1],"2.06 µM [rising, full curve, poor fit]"
COc1ccc(/C=N/NC(=O)c2cccnc2)cc1COc1ccc(NC(C)=O)cc1,AC50,[1],"15.8 µM [rising, partial curve]"
same,AC50,[2],"12.6 µM [falling, partial curve, poor fit]"
CCn1ncc(/C=N/O)c1C,AC50,[1],"0.411 µM [rising, full curve, poor fit]"
COc1ccccc1C1(O)C(=O)Nc2ccccc21 (stereo not drawn),AC50,[1],"1.26 µM [rising, full curve, poor fit]"
Cc1ccc(S(=O)(=O)N2CCC(C(=O)N[C@@H](C)C(=O)NCCc3ccccc3)CC2)cc1,AC50,[1],"12.6 µM [rising, single point]"
CC(C)(C)c1ccc(C(=O)Nc2ccc(F)cc2)s1,AC50,[1],"6.31 µM [falling, partial curve]"
CCOc1ncccc1C(=O)OCC(=O)Nc1ccc(Cl)cn1,AC50,[1],"7.31 µM [falling, partial curve, poor fit]"
CCN(CC(=O)NC1CCCC1)S(=O)(=O)c1ccc(Br)cc1,AC50,[1],"20 µM [rising, single point]"
Cc1cccc(-n2c(CCn3nc(C)c([N+](=O)[O-])c3C)n[nH]c2=S)c1,AC50,[1],"29.1 µM [falling, single point]"
COc1ccc(C(=O)Nn2c(CCC(=O)O)ccc2-c2ccc(C)cc2)cc1OC,AC50,[1],"10 µM [rising, partial curve]"
Cc1c(NC(=O)C(C)OC(=O)c2cccnc2Cl)c(=O)n(-c2ccccc2)n1C (stereo not drawn),AC50,[1],"2.06 µM [rising, full curve, poor fit]"
COc1cc2c(cc1NC(=O)c1cccc(S(=O)(=O)N(C)C)c1)oc1ccccc12,AC50,[1],"9.2 µM [falling, partial curve, poor fit]"
O=C(CC1SC2=NCCN2C1=O)Nc1ccc(Cl)cc1 (stereo not drawn),AC50,[1],"6.51 µM [rising, partial curve, poor fit]"
COc1cccc(NC(=O)C(Cc2ccccc2)n2cccc2)c1 (stereo not drawn),AC50,[1],"35.5 µM [falling, single point]"
Cc1ccccc1OCC(=O)OCC(=O)NCCNC(=O)COC(=O)COc1ccccc1C,AC50,[1],"0.291 µM [rising, full curve]"
O=C1CCC(C(=O)OCc2ccccc2)N1 (stereo not drawn),AC50,[1],"16.4 µM [falling, single point]"
CN(C(=O)CN1C(=O)/C(=C/c2ccccc2F)SC1=S)C1CCS(=O)(=O)C1 (stereo not drawn),AC50,[1],"15.8 µM [falling, partial curve, poor fit]"
N#Cc1ccccc1OCC(=O)NC(N)=O,AC50,[1],"29.1 µM [falling, single point]"
C/C(CC(=O)Nc1cccc(Cl)c1Cl)=N\NC(=O)c1ccccc1N,AC50,[1],"11.2 µM [falling, partial curve]"
CC(Oc1ccc(Cl)cc1Cl)C(=O)Nc1ncccn1 (stereo not drawn),AC50,[1],"17.8 µM [falling, partial curve]"
CN(C)Cc1nc2ccccc2c(=O)n1CC#N,AC50,[1],"12.6 µM [rising, single point]"
Cc1cc(NS(=O)(=O)c2ccc(NC(=O)C(C)Oc3cc(C)c(Cl)c(C)c3)cc2)no1 (stereo not drawn),AC50,[1],"14.1 µM [falling, single point]"
CCN(CC)S(=O)(=O)c1ccc(C(=O)NCCSc2c[nH]c3ccccc23)cc1,AC50,[1],"6.51 µM [rising, single point]"
same,AC50,[2],"8.2 µM [falling, partial curve]"
C=CCC[C@H](Cc1ccc(F)cc1)C(=O)OC[C@@H](NC(=O)[C@@H](CC=C)CC(=O)N[C@@H](CO)Cc1ccccc1)C(C)(C)C,AC50,[1],"29.1 µM [falling, single point]"
CCCCn1c(=N)n(CC(O)COc2ccc(C)cc2)c2ccccc21 (stereo not drawn),AC50,[1],"35.5 µM [falling, single point]"
O=C(COC(=O)CCc1ccccc1)NCc1ccccc1,AC50,[1],"1.03 µM [falling, full curve]"
Clc1ccc(-c2nc(NCCCN3CCOCC3)c3ccccc3n2)cc1,AC50,[1],"35.5 µM [falling, single point]"
COc1ccc(S(=O)(=O)NC2CCCC2)c(Cl)c1Cl,AC50,[1],"4.61 µM [rising, single point]"
O=C(/C=C/c1ccc(-c2ccccc2[N+](=O)[O-])o1)c1ccccc1,AC50,[1],"29.1 µM [falling, single point]"
same,AC50,[2],"25.9 µM [falling, partial curve, poor fit]"
O=C(N/N=C/c1ccc(O)c(O)c1)N/N=C/c1ccc(O)c(O)c1,AC50,[1],"17.8 µM [falling, single point]"
Nc1nnc(CC(=O)N/N=C/c2ccc(-c3ccccc3)o2)s1,AC50,[2],"20.6 µM [rising, partial curve, poor fit]"
CCc1[nH]c(=O)c(C#N)c2c1COC(C)(C)C2,AC50,[1],"1.64 µM [falling, full curve, poor fit]"
CC(C)Nc1ncnc2c1cnn2-c1ccc(Cl)cc1,AC50,[1],"14.6 µM [falling, partial curve]"
CCC(Sc1nc2n[nH]c(C)c2c(=N)n1-c1cccc(Cl)c1C)C(=O)N(CC)CC (stereo not drawn),AC50,[1],"0.794 µM [rising, full curve, poor fit]"
C=C(C)C(=O)OCC(C)C,AC50,[1],"18.4 µM [rising, partial curve, poor fit]"
O=C(NC1CCCCC1)c1cccnc1Sc1ccccc1Cl,AC50,[1],"3.16 µM [falling, single point]"
Cc1occc1C(=O)N/N=C/c1cnn(C)c1C,AC50,[1],"23.1 µM [falling, single point]"
Cc1c(NC(=O)c2cccc(NC(=O)c3ccco3)c2)cccc1C(=O)O,AC50,[1],"6.51 µM [falling, partial curve, poor fit]"
CCNC(=S)N1CCN(c2nc(CC)nc3sc4c(c23)CCCC4)CC1,AC50,[1],"4.47 µM [falling, partial curve]"
CCOC(=O)C1(Cc2ccc(Cl)cc2)CCN(C(=O)C2=NNC(=O)CC2)CC1,AC50,[1],"7.08 µM [rising, partial curve]"
Cc1ccc(S(=O)(=O)Nc2ccccc2N2CCCCC2)cc1,AC50,[1],"0.13 µM [falling, full curve, poor fit]"
Cc1ccc(CSc2nnc(-c3ccccn3)n2C)cc1,AC50,[1],"3.98 µM [rising, full curve, poor fit]"
CC1CCCN(c2nc3ccsc3c(=O)s2)C1 (stereo not drawn),AC50,[1],"6.51 µM [falling, single point]"
O=C(NNC(=S)Nc1ccccc1)c1ccc2ncccc2c1,AC50,[1],"10 µM [falling, partial curve]"
Cn1c(-n2c(CCCN3C(=O)c4ccccc4C3=O)nc3ccccc3c2=O)nc2ccccc21,AC50,[1],"2 µM [falling, full curve]"
COC(=O)c1ccccc1N=Nc1c(C)noc1C,AC50,[1],"3.16 µM [falling, full curve, poor fit]"
NC(=O)C1CN(S(=O)(=O)c2ccc(Cl)cc2F)c2ccccc2O1 (stereo not drawn),AC50,[1],"0.112 µM [falling, full curve, poor fit]"
CCc1nn(CCCC(=O)NCc2ccco2)c(=O)c2cc3occc3n12,AC50,[1],"20 µM [rising, partial curve, poor fit]"
Cc1ccc(C(=O)NCC(=O)NCC(=O)OCC(=O)c2cccs2)cc1,AC50,[1],"18.4 µM [rising, single point]"
COc1ccc(N2CCN(C(c3cccs3)C(C)NC(=O)c3ccc4c(c3)OCO4)CC2)cc1 (stereo not drawn),AC50,[1],"35.5 µM [rising, single point]"
CC(C)c1ccc(N(C(=O)c2snc(C(N)=O)c2N)C(C(=O)NCC2CCCO2)c2ccc(N(C)C)cc2)cc1 (stereo not drawn),AC50,[1],"2.24 µM [falling, full curve, poor fit]"
COc1ccc(C(=O)N[C@H](C(=O)OCC(=O)NC(=O)c2cccn2C)C(C)C)cc1,AC50,[1],"7.31 µM [falling, partial curve]"
O=[N+]([O-])c1cc(F)c2cccnc2c1O,AC50,[2],"10 µM [falling, partial curve]"

# Given as tab-separated lines: entries from further up.
smiles	measurement	setting	value
Cc1c(NC(=O)c2cccc(NC(=O)c3ccco3)c2)cccc1C(=O)O	AC50	[1]	6.51 µM [falling, partial curve, poor fit]
CCNC(=S)N1CCN(c2nc(CC)nc3sc4c(c23)CCCC4)CC1	AC50	[1]	4.47 µM [falling, partial curve]

# Quoted at random: 3 entries already listed, in no set order.
smiles,measurement,setting,value
C=CCC[C@H](Cc1ccc(F)cc1)C(=O)OC[C@@H](NC(=O)[C@@H](CC=C)CC(=O)N[C@@H](CO)Cc1ccccc1)C(C)(C)C,AC50,[1],"29.1 µM [falling, single point]"
N/C(=N\OC(=O)CC1CCCCC1)c1ccc([N+](=O)[O-])cc1,AC50,[1],"29.1 µM [rising, single point]"
CCN(CC(=O)NC1CCCC1)S(=O)(=O)c1ccc(Br)cc1,AC50,[1],"20 µM [rising, single point]"
